In PubChem BioAssay AID1508600 (Functional Genomics Laboratory (NCATS/FGL), 2020):
The whole screen tested about 53,000 sequences, of which about 3,700 (7%) were called active.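 Rule for the calls: active = gene knockdowns whose robust z-score for IL-1 alpha signal is at least 2 or at most -2, so actives lie on both sides; inactive = the rest.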 Some of the results follow.

Test: Components of the Cytosolic LPS Sensing Pathway: Gene Identification via Genome-wide siRNA Screen;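 note: robust z of the log signal after scaling to non-targeting control siRNA wells of the plate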
Settings: RAW264.7 macrophages, IL-1a HTRF, actives lie on both sides, screened at 100 nM (by protocol), cells primed 5 h with Pam3CSK4 first
Method in brief: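 Knockdown: 100 nM siRNA, 48h, RAW264.7. Stimulation: Pam3CSK4 5 h, then LipidA via TransIT-TKO 24 h. Output: supernatant IL-1a HTRF, negative-control-normalized, log robust z-score; viability by CellTiter-Glo.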
For GGACAUGACCAAAAGGCUGTT against Zfp706, the z-score was active: 3.84.
For GCUAGUAUUGAGCAACAACTT against Rnh1, the z-score was inactive: 0.0349.
With GGUCCUUAACCGCUAUGCATT against Esrp2 the z-score was inactive: 0.294.
In the case of GCAACGUAACAUUACUAUCTT against Rxfp2, the z-score is reported as inactive: 0.158.
For CCAAAUUCCUAUCAAGUUUTT against Ints2, the z-score was inactive: 1.98.
In the case of GCUCAGUUUAUACCAAAAUTT against Api5, the z-score is reported as active: -2.31.
With GGUAACUGAAACUCAAUUATT against Tceanc2 the z-score was inactive: 1.32.
For GGUGUGAACUCCUUCCUGGTT against Dpysl4, the z-score was inactive: 1.01.
For GGCUAAGACUAUGUUGUAATT against Smcp, the z-score was inactive: -1.48.
For GGGAUGACUUGUUCACAUCTT against Trmt2a, the z-score was inactive: -0.0324.
With GGCUUGAUGGGCUUUUUGCTT against Ndufb8 the z-score was inactive: 0.285.
For GGUCUUCCUUGAACAUCAGTT against Fev, the z-score was active: -2.05.
With CCCUCUACUACUGCAUCGUTT against Xkr7 the z-score was inactive: 1.74.
With CCUAUUUUCUAUGUUGCCUTT against Cnih2 the z-score was inactive: 0.479.
In the case of GGCGUAACCUAACAUGGGATT against Clec1b, the z-score is reported as inactive: -1.35.
For GGAGAAGAAGGAGAGGAUGTT against Myo18a, the z-score was inactive: -0.347.
For GGUCACCUGGGUAUUUAUGTT against Tead3, the z-score was inactive: -1.06.
For CGAGAAGAUAUUUAAAGAGTT against Myo10, the z-score was inactive: -0.045.
In the case of CCCUGAUGAAUAAGGACUCTT against Kif17, the z-score is reported as inactive: -0.516.
With GGAUUUUGUUCUUCAUCCATT against Nedd4 the z-score was inactive: -0.142.
For GCCAUAAUAAUCAAUGUGATT against Galm, the z-score was inactive: -0.759.
With CAGCAUCUUUGAUUGUCUGTT against Tssc4 the z-score was active: 2.15.
With GGUAACAAGAGGUCUAGCATT against P2ry1 the z-score was active: 3.66.
For GGAUGAAAUGAACCUAGAGTT against Sh3pxd2b, the z-score was active: -2.16.
With “GCUUUCAUGUCCUAAAGAATT against 4921504E06Rik” the z-score was inactive: -0.242.
In the case of GGCACAGUAAUCUUUUUCUTT against Triqk, the z-score is reported as inactive: -1.51.
With CCCAGACAUAUUUUACUCGTT against Ido2 the z-score was inactive: -1.14.
In the case of GGAAAUCAUUCUCCUUCAUTT against Sned1, the z-score is reported as inactive: 0.492.
In the case of GGAUGCAUCUUGGGUACUGTT against Vmn1r74, the z-score is reported as inactive: 0.446.
For GCUCUUUCUAGCUUAUGAUTT against Chmp1b, the z-score was inactive: -0.464.
In the case of GGAACUGUUUGACAGUGAGTT against Pex19, the z-score is reported as inactive: -0.811.
For AGUGUAACUGCAGAAGCCUTT against Olfr207, the z-score was inactive: -1.3.
For GGAAGUUGUAGGAGAAAACTT against Rnf214, the z-score was inactive: -0.624.
In the case of GGCAGGAAGGACAAUCAGUTT against Thsd7b, the z-score is reported as inactive: -0.349.
With CGAAGUGACUGGAAAAAAATT against Wbp2 the z-score was inactive: -0.768.
For GUGAAGAAAGUCAUCAAGATT against Olfr1506, the z-score was inactive: -0.182.
In the case of GGGACAAAGGCUCAACAUATT against Pid1, the z-score is reported as inactive: 1.79.
With GGGAGAGUCAAAAAAAGAUTT against Khdrbs1 the z-score was inactive: -0.536.
For CUUAGCUUACAAACAAGGCTT against Gm5617, the z-score was inactive: 0.485.
In the case of GCUUUUGAUCGCAAUACAGTT against Spag9, the z-score is reported as inactive: 0.724.
In the case of GGUGAAGGUCAGCAAAGAATT against Exosc5, the z-score is reported as inactive: -1.17.
For GCUUUGAGAACCUUGGUAATT against Rab9b, the z-score was inactive: -0.652.
For CCCAGCAUACCAUCUCUACTT against Arhgef1, the z-score was inactive: 0.619.
For GGAUAUGGACUAUUCACGGTT against Dgat1, the z-score was inactive: -1.32.
In the case of GGAACUGAAUGCUCUUCCATT against Msln, the z-score is reported as inactive: -0.145.
For AUGAUUCACAGUGCAGUGATT against Gimap1, the z-score was inactive: -0.575.
For CCUACAGCGAGCUAUUUCATT against Epc2, the z-score was inactive: -1.07.
In the case of GCCUCUUUUCACACUUAAATT against Olfr608, the z-score is reported as inactive: -1.16.
In the case of CGAAUGUGGCUAUGACCUGTT against Kif6, the z-score is reported as inactive: 0.555.
In the case of GGAAUUAACGUGUUUCUGUTT against Tor1aip2, the z-score is reported as inactive: 1.14.
For GGGCAUGUUCACCAUCAGATT against Sec1, the z-score was inactive: -1.42.
In the case of CCAUCUACGAUCAAGAGAATT against Cryba1, the z-score is reported as inactive: -0.288.
In the case of GGAAUGUGCUCAUUUUUGATT against Hspa8, the z-score is reported as inactive: -1.97.
For GGUUUUAAAGUCAUUGUUGTT against Piezo2, the z-score was inactive: 0.0777.
In the case of CGAGAAUAUCAUUUAUUGCTT against Alkbh7, the z-score is reported as inactive: 1.52.
For GCCACUUACACUUACUUGATT against Olfr1331, the z-score was inactive: -0.15.
For CCUGGUGCAUGCUUUAAUATT against Kynu, the z-score was inactive: -0.603.
With GGAUGUGCCCAACUGGAAGTT against Ndufa13 the z-score was inactive: -0.676.
With UGAAUCACCACCCGGAAUGTT against Pcbd2 the z-score was inactive: 0.41.
With GGUGGAGUGAUACGAAGAGTT against Radx the z-score was inactive: 1.21.
For GAGAAACACCAUCUCCUAUTT against Olfr502, the z-score was inactive: -1.2.
For CCUGAUCUGUGGCACGGAUTT against Spink4, the z-score was inactive: 0.672.
For GGAUUUCUUCAAGUCCUUGTT against Scgb1a1, the z-score was inactive: 0.705.
In the case of GGCCAUAUUGGAGCAAAUCTT against Nppa, the z-score is reported as inactive: 0.0999.
With GGCAGAAAGUUAUUAUAGGTT against Plppr3 the z-score was inactive: -0.318.
With GGAGUUUUGGGUGAUGAUATT against Olfr974 the z-score was active: -2.41.
For GGUCUUCGAAAGAACCAAGTT against Siva1, the z-score was inactive: -0.333.
In the case of GGAGAAGACCUGAUUCCAGTT against Zfx, the z-score is reported as inactive: 0.195.
For GCUUUUUGGAGGAAUUCACTT against Gm6034, the z-score was inactive: 0.208.
With CGAGUUAUUCUUGUUAUAGTT against Vmn1r178 the z-score was inactive: 0.356.
In the case of CCUUGUCCCUUUACCUCAATT against Plk5, the z-score is reported as inactive: -1.39.
With GCAAGACCCAAGAGUUACATT against Soat2 the z-score was active: -2.07.
For GGAAAAAAAGGAGUGGGCATT against Klra6, the z-score was inactive: -0.811.
With GGGUUAUGCUGUCUUGGUGTT against Tmem50b the z-score was inactive: -0.0931.
In the case of GGACUUUGAAAAAGAUGCATT against Fkbp7, the z-score is reported as inactive: 1.21.
In the case of GCCUUUAUACUAGCAGCCATT against Olfr827, the z-score is reported as inactive: -0.434.
In the case of GGAUCGUGUGGAACACCUCTT against Mtss2, the z-score is reported as inactive: 0.761.
For CCGUAUCGAUGUGACAUAUTT against Zfp94, the z-score was inactive: -0.736.
With GGUCCAGAAGAAAUAAACATT against Kcnn1 the z-score was inactive: -0.375.
With CCUGUGCUCUGAGUUUGGCTT against Tmem270 the z-score was inactive: 0.00319.
With CCACUAAUCGAGUUGGUGCTT against Pigf the z-score was inactive: -0.447.
For GAACGGGCAUAUGUUCAACTT against Mgst3, the z-score was inactive: 1.94.
For GGAAAAGAAGAGGAAAUUCTT against Smarce1, the z-score was inactive: -1.26.
For GGCAUUCCUACAGUUCAGATT against Mrpl46, the z-score was inactive: -0.144.
With GGAGAAGGUAGUUCUGAAATT against Slc7a11 the z-score was inactive: -0.349.
In the case of GGCCCAAACUUACAGCUGUTT against Ptges2, the z-score is reported as inactive: -0.255.
In the case of CCUACUUGACGAAGGCCUATT against Ndufb10, the z-score is reported as inactive: 0.903.
In the case of GGAGCUUACAUGGUCCCUATT against Prss37, the z-score is reported as inactive: -0.238.
In the case of CCAUAUAAGGCACAGUUUGTT against Ergic1, the z-score is reported as inactive: 1.02.
With GGUAGCAAAUCCAACAAGATT against Slamf1 the z-score was inactive: 0.226.
For GGUUCUUCAUACAAAUUACTT against S1pr5, the z-score was inactive: 0.83.
In the case of CCUUUUCACAGAGAGCUGCTT against Tex264, the z-score is reported as inactive: -1.57.
In the case of CCCGGCCACUGUUAUGAGATT against Wdr83os, the z-score is reported as inactive: 0.798.
For CUACAGUGGCAAUAAUAUUTT against Rpl30, the z-score was inactive: 0.425.
For GGAAGACAGUAGGAAGAAATT against Eif2s2, the z-score was inactive: 0.721.
With GGCAUAUCAUUUGUAGGAUTT against Olfr73 the z-score was inactive: -0.0852.
In the case of GGCUGUCUCCGAACACUAUTT against Josd1, the z-score is reported as inactive: -0.594.
For GGUCUUAAUUCUGAAGGACTT against Chn1, the z-score was inactive: -0.207.
In the case of GGCUUGAUUGCAUCUUUAUTT against Ebpl, the z-score is reported as inactive: -0.765.
In the case of GGUUCAUCUCAUCUCAAGUTT against Mfsd13a, the z-score is reported as inactive: -1.47.
With GCAACUACCCUCUAAAGUCTT against Man1b1 the z-score was inactive: 0.32.
In the case of GCCAGUGCACUCCUCUUUUTT against Apip, the z-score is reported as inactive: -0.177.
For CCGGCAGACCUGUGACAUUTT against Rgs14, the z-score was inactive: 0.0166.
In the case of GUGAGACCAAGUUACAGGATT against Olfr1504, the z-score is reported as inactive: 1.5.
For GGCUGGUACUCCAUUUUAGTT against Neil2, the z-score was inactive: 0.0451.
In the case of GGCUUUAGCUAGUGCUAGGTT against Marveld1, the z-score is reported as inactive: -0.395.
In the case of GCUCCCUAACAGUUGUCUATT against Mtmr14, the z-score is reported as inactive: -0.467.
